Experimental data from PubChem BioAssay AID330 (DTP/NCI, 2004).
The list shows only some results of the screen, not a fair sample: it is rich in T/C values a quarter to a half above the control, in often repeated tests (any T/C) and in doses without a T/C. Further doses and runs are listed elsewhere. T/C: endpoint of the treated group in % of that of the vehicle group. Some entries give survivors of the animals treated and no T/C: the source files T/C as zero there, which appears to mark a toxic dose or a test without result, not a measured value. Some doses without a T/C left all or most animals alive at the check, yet need not have been tolerated: survival well below the control is almost never listed, so the zero probably covers shortened survival too. Survivors were counted at the toxicity check, usually on the fifth day, unless a day is given; later deaths do not show. Schedules are NCI's codes, read here as Q, the interval in days (D) or hours (H), X, the number of doses. Brackets with × give the number of equal values in this list. Some doses were run more than once; their values stand side by side, smallest first. Where survival is the endpoint, the PubChem record calls one and a half times the control and up active, and a quarter to a half above the control has no call in these data; cut-offs in other NCI protocols can differ. Some T/C values carry the count of animals alive at the toxicity check (mostly the fifth day); where none is given, no animal had died by that day.

System: P388 leukemia ip, CD2F1 mice, survival T/C
Experiment: NCI In Vivo Anticancer Drug Screen. Data for tumor model P388 Leukemia (intraperitoneal) in CD2F1 (CDF1) mice
Conditions: T/C endpoint: median survival time, higher T/C = longer survival
[1] = dose: 120.0 mg/kg/injection, schedule: Q01DX005 (ip), vehicle: saline with Tween-80
[2] = dose: 12.5 mg/kg/injection, schedule: Q01DX005 (ip), vehicle: saline with Tween-80
[3] = dose: 25.0 mg/kg/injection, schedule: Q01DX005 (ip), vehicle: saline with Tween-80
[4] = dose: 50.0 mg/kg/injection, schedule: Q01DX005 (ip), vehicle: saline with Tween-80
[5] = dose: 240.0 mg/kg/injection, schedule: Q01DX005 (ip), vehicle: Klucel (hydroxypropylcellulose) (HPC)
[6] = dose: 25.0 mg/kg/injection, schedule: Q01DX009 (ip), vehicle: Klucel (hydroxypropylcellulose) (HPC)
[7] = dose: 100.0 mg/kg/injection, schedule: Q01DX009 (ip), vehicle: Klucel (hydroxypropylcellulose) (HPC)
[8] = dose: 240.0 mg/kg/injection, schedule: Q01DX005 (ip), vehicle: saline
[9] = dose: 240.0 mg/kg/injection, schedule: Q01DX005 (ip), vehicle: saline with Tween-80
[10] = dose: 100.0 mg/kg/injection, schedule: Q01DX005 (ip), vehicle: saline with Tween-80
[11] = dose: 200.0 mg/kg/injection, schedule: Q01DX005 (ip), vehicle: saline with Tween-80
[12] = dose: 100.0 mg/kg/injection, schedule: Q01DX009 (ip), vehicle: water
[13] = dose: 200.0 mg/kg/injection, schedule: Q01DX009 (ip), vehicle: water
[14] = dose: 50.0 mg/kg/injection, schedule: Q01DX009 (ip), vehicle: other
[15] = dose: 100.0 mg/kg/injection, schedule: Q01DX009 (ip), vehicle: other
[16] = dose: 200.0 mg/kg/injection, schedule: Q01DX009 (ip), vehicle: other
[17] = dose: 100.0 mg/kg/injection, schedule: Q01DX009 (ip), vehicle: saline
[18] = dose: 50.0 mg/kg/injection, schedule: Q04DX003 (ip), vehicle: distilled water + Tween-80

## NC(=O)N/N=C(/Cc1nc2ccccc2nc1C/C(=N/NC(N)=O)c1cccc2ccccc12)c1cccc2ccccc12
[1]
  survivor count: 6 of 6

## C=C1C(=O)OC2/C=C(\C)C3OC3/C=C(/C(=O)OC)C(O)C(OC(=O)C3(C)OC3C)C12 (stereo not given)
dose: 12.0 mg/kg/injection, schedule: Q01DX009 (ip), vehicle: Klucel (hydroxypropylcellulose) (HPC)
  T/C: 128 % of control

## Oc1ccc2ccccc2c1/C=N/NC(=S)N/N=C/c1c(O)ccc2ccccc12
dose: 3.0 mg/kg/injection, schedule: Q01DX005 (ip), vehicle: saline with Tween-80
  survivor count: 6 of 6
[2]
  survivor count: 6 of 6
[3]
  survivor count: 6 of 6
[4]
  survivor count: 6 of 6 (2×)

## COc1cc(NC(=O)C2=C(C)NC(C)=C(C(=O)Nc3cc(OC)c(Cl)cc3OC)C2c2cccc([N+](=O)[O-])c2)c(OC)cc1Cl
[5]
  survivor count: 6 of 6

## c1ccc2c(SCCSc3c4ccccc4nc4ccccc34)c3ccccc3nc2c1
[5]
  survivor count: 0 of 6

## C[Si](OC(=O)N(CCCl)CCCl)(c1ccccc1)c1ccccc1
[6]
  survivor count: 6 of 6
dose: 50.0 mg/kg/injection, schedule: Q01DX009 (ip), vehicle: Klucel (hydroxypropylcellulose) (HPC)
  survivor count: 6 of 6
[7]
  survivor count: 1 of 6

## COc1cc2c(cc1OC)C13CCN4C=C5CCOC6CC(=O)N2C1C6C5CC43 (stereo not given)
dose: 120.0 mg/kg/injection, schedule: Q01DX005 (ip), vehicle: saline
  survivor count: 0 of 6
[8]
  survivor count: 0 of 6

## COC(=O)N1c2ccccc2C(c2ccccc2)=NC1C#N (stereo not given)
dose: 60.0 mg/kg/injection, schedule: Q01DX005 (ip), vehicle: saline with Tween-80
  survivor count: 6 of 6
[1]
  survivor count: 0 of 6
[9]
  survivor count: 0 of 6

## CN(C)CC/C=C1/c2ccccc2Sc2ccc(Cl)cc21
[3]
  survivor count: 3 of 5
[4]
  survivor count: 2 of 5
[10]
  survivor count: 0 of 5
[11]
  survivor count: 0 of 5

## C=CCCn1ccnc1[N+](=O)[O-]
[12]
  survivor count: 6 of 6
[13]
  survivor count: 0 of 6

## CSc1nc(Cl)c(Cl)c(C(F)(F)F)n1
[10]
  survivor count: 5 of 6
[11]
  survivor count: 0 of 6

## O=NNc1cncc(Cl)n1
[12]
  survivor count: 6 of 6
[13]
  survivor count: 1 of 6

## Cc1cc(C(C)(CC(C)C)c2ccc(O)c(C)c2)ccc1O
dose: 100.0 mg/kg/injection, schedule: Q01DX009 (ip), vehicle: saline with Tween-80
  survivor count: 4 of 6

## Cc1ccc2c(c1)sc1nncn12
dose: 200.0 mg/kg/injection, schedule: Q01DX009 (ip), vehicle: Klucel (hydroxypropylcellulose) (HPC)
  survivor count: 0 of 6

## CC(O)CNC1=C(Cl)C(=O)c2ccccc2C1=O (stereo not given)
dose: 400.0 mg/kg/injection, schedule: Q01DX009 (ip), vehicle: distilled water + Tween-80
  survivor count: 4 of 6

## BrCCC[P+](c1ccccc1)(c1ccccc1)c1ccccc1
dose: 18.75 mg/kg/injection, schedule: Q01DX009 (ip), vehicle: saline with Tween-80
  T/C: 129 % of control

## CCOC(=O)/C(=C(\C)N)n1[nH]c(=O)n(-c2ccccc2)c1=O
dose: 25.0 mg/kg/injection, schedule: Q01DX005 (ip), vehicle: Klucel (hydroxypropylcellulose) (HPC)
  survivor count: 6 of 6

## CCOc1c(N=Nc2cccc(Cl)c2)c(-c2ccccc2)nn1C(=S)S
[2]
  survivor count: 1 of 6
[3]
  survivor count: 0 of 6
[4]
  survivor count: 0 of 6
[10]
  survivor count: 0 of 6
[11]
  survivor count: 0 of 6

## O=C1NC(c2cccc3ccccc23)Nc2ccc(Cl)cc21 (stereo not given)
[7]
  T/C: 141 % of control

## C/C(=N/NC(N)=O)c1cn[nH]c1C
[5]
  survivor count: 0 of 6

## CCNCCNc1ccc(NCCNCC)c2c1C(=O)c1ccccc1C2=O
dose: 2.0 mg/kg/injection, schedule: Q01DX009 (ip), vehicle: acid diluted with saline
  T/C: 148 % of control
dose: 3.13 mg/kg/injection, schedule: Q01DX009 (ip), vehicle: other
  T/C: 142 % of control
dose: 6.25 mg/kg/injection, schedule: Q01DX009 (ip), vehicle: other
  T/C: 149 % of control
dose: 32.0 mg/kg/injection, schedule: Q01DX009 (ip), vehicle: acid diluted with saline
  survivor count: 7 of 8
[14]
  survivor count: 0 of 6 and 2 of 6
[15]
  survivor count: 0 of 6
[16]
  survivor count: 0 of 6
dose: 400.0 mg/kg/injection, schedule: Q01DX009 (ip), vehicle: other
  survivor count: 0 of 6

## CS(=O)(=O)OCCC[Se]Cc1ccccc1C[Se]CCCOS(C)(=O)=O
[9]
  survivor count: 0 of 6

## [O-]c1c(Cl)c(Cl)c(O[P+](c2ccccc2)(c2ccccc2)c2ccccc2)c(Cl)c1Cl
dose: 50.0 mg/kg/injection, schedule: Q01DX009 (ip), vehicle: saline
  survivor count: 5 of 6
[17]
  survivor count: 2 of 6

## Cc1cnc(C)n2c(C)nnc12
dose: 400.0 mg/kg/injection, schedule: Q04DX003 (ip), vehicle: saline
  survivor count: 3 of 6

## CN(C)/C=C(/N=C(C#N)C#N)C1OCCO1
[4]
  survivor count: 4 of 6
[10]
  survivor count: 2 of 6
[11]
  survivor count: 0 of 6

## CC1=NNC(=O)C1(Br)Br
[6]
  survivor count: 3 of 6

## CC(C)=C(C#N)NC(C)(C)C
[17]
  survivor count: 4 of 6
dose: 200.0 mg/kg/injection, schedule: Q01DX009 (ip), vehicle: saline
  survivor count: 0 of 6

## Cc1c2cc[n+](CCCCCCCC[n+]3ccc4c(C)c5[nH]c6ccccc6c5cc4c3C)c(C)c2cc2c1[nH]c1ccccc12
[18]
  T/C: 128 and 133 % of control
  survivor count: 3 of 6
dose: 100.0 mg/kg/injection, schedule: Q04DX003 (ip), vehicle: distilled water + Tween-80
  survivor count: 1 of 6 and 3 of 6
dose: 200.0 mg/kg/injection, schedule: Q04DX003 (ip), vehicle: distilled water + Tween-80
  survivor count: 5 of 6
dose: 400.0 mg/kg/injection, schedule: Q04DX003 (ip), vehicle: distilled water + Tween-80
  survivor count: 2 of 6

## C1=C[N-]c2c3c(ccc2=C1)=CC=C[N-]3.C1=C[N-]c2c3c(ccc2=C1)=CC=C[N-]3.O=S(=O)(O)O.[Cu+2]
dose: 6.25 mg/kg/injection, schedule: Q04DX002 (ip), vehicle: Klucel (hydroxypropylcellulose) (HPC)
  survivor count: 6 of 6
dose: 12.5 mg/kg/injection, schedule: Q04DX002 (ip), vehicle: Klucel (hydroxypropylcellulose) (HPC)
  survivor count: 5 of 6
dose: 25.0 mg/kg/injection, schedule: Q04DX002 (ip), vehicle: Klucel (hydroxypropylcellulose) (HPC)
  survivor count: 2 of 6
dose: 50.0 mg/kg/injection, schedule: Q04DX002 (ip), vehicle: Klucel (hydroxypropylcellulose) (HPC)
  survivor count: 0 of 6
dose: 100.0 mg/kg/injection, schedule: Q04DX002 (ip), vehicle: Klucel (hydroxypropylcellulose) (HPC)
  survivor count: 0 of 6
dose: 200.0 mg/kg/injection, schedule: Q04DX002 (ip), vehicle: Klucel (hydroxypropylcellulose) (HPC)
  survivor count: 0 of 6
dose: 400.0 mg/kg/injection, schedule: Q04DX002 (ip), vehicle: Klucel (hydroxypropylcellulose) (HPC)
  survivor count: 0 of 6

## COC(=O)C1=C(C(=O)OC)C(C)(C)N=N1
dose: 12.5 mg/kg/injection, schedule: Q01DX009 (ip), vehicle: other
  T/C: 125 % of control [4 of 6 alive]
[14]
  survivor count: 0 of 6
[15]
  survivor count: 0 of 6
[16]
  survivor count: 0 of 6

## COc1cc(C2CC(=O)N(c3ccc(C)cc3)C(=O)C2)cc(OC)c1OC
dose: 75.0 mg/kg/injection, schedule: Q01DX009 (ip), vehicle: Klucel + Tween-80
  T/C: 142 % of control
dose: 400.0 mg/kg/injection, schedule: Q01DX005 (ip), vehicle: Klucel + Tween-80
  T/C: 149 % of control

## COc1ccc(C(=O)C(CN2CCOCC2)CN2CCOCC2)cc1
[8]
  survivor count: 0 of 6
